Assay results published in PubChem BioAssay AID2551 (National Center for Advancing Translational Sciences (NCATS), 2010).
The campaign covered roughly 310,000 compounds. About 17,000 (5.5%) were called active. Inconclusive means that the source gave no clear call. Such entries were picked first, then a sample of the others. Calls follow the shape of the dose curve; as a rule, active = well fitted inhibition curve with a large enough effect; inconclusive = small, poorly fitted or top-dose-only effect, or effect the other way; inactive = no such curve, though single readings can be large or run the other way. Potencies beside an inconclusive call are fits to weak or partial responses and may not hold up.

By UniProt entry, the sequences of proteins in these tests, tags left out. Where a name states a change or a piece, a line headed by the entry shows the natural chain unless it says otherwise.
UniProt P51450: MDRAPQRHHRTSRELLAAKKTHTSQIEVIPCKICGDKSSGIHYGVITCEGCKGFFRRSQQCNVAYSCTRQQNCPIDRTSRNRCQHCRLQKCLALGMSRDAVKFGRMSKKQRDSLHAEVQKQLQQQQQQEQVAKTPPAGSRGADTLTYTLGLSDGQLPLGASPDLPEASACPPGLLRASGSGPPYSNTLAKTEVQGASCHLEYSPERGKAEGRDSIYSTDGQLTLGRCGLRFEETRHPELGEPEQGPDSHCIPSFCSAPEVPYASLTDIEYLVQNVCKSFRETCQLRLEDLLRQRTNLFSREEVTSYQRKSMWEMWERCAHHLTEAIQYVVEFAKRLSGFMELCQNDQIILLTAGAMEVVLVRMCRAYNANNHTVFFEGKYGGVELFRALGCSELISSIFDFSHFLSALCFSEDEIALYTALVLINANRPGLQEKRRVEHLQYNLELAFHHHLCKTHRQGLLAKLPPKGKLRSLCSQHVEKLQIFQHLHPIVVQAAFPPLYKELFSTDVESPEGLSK

molecular target: Nuclear receptor ROR-gamma (Mus musculus) (UniProt P51450); test: qHTS for inhibitors of ROR gamma transcriptional activity; conditions: Drosophila S2 Gal4-RORgamma UAS-luciferase reporter, 20 h; series mostly up to 53.6 µM; also: nearly all actives have a fitted effect of over 60% in size
Method in brief: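 Stable Schneider cell line, Gal4 DNA-binding domain fused to ROR gamma, UAS-luciferase. Cmpd 1 hr RT → CuSO4 700 uM final → 20 hr RT → luciferase reagent 10 min → luminescence.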
Potency is read from the fitted curve at half-maximal effect.

Structure (SMILES) | Potency
Cc1ccc(NC(C)C(=O)N/N=C/c2ccc([N+](=O)[O-])s2)cc1 (stereo not drawn) | inconclusive: 22.4 µM [inhibitor, single point]
CC(C)CC(N)C(=O)NC(C)C(=O)O (stereo not drawn) | inactive
CC(=O)c1ccc2noc(-c3ccc(Cl)cc3)c2c1 | inconclusive: 7.94 µM [inhibitor, partial curve]
C=C(C)CSc1cc(C)nc2c(-c3ccccc3)c(C)nn12 | active: 11.2 µM
O=C1N(Cc2cccnc2)C[C@@H]2C[C@@H](c3ccc(C(F)(F)F)cc3)N3CCC[C@@]123 | inconclusive: 11.2 µM [activator, partial curve, poor fit]
Cc1c(C)c(C)c2[nH]c(=S)[nH]c2c1C | active: 2.82 µM
Cc1ccccc1N=Nc1c(C)[nH]n(C(N)=S)c1=O | active: 0.398 µM
CCOc1ccc(-c2cc(C(=O)O)c3ccccc3n2)cc1 | active: 7.94 µM
CCOc1cc2nc(-c3ccc(OC)c(OC)c3)nc(NCCCN3CCOCC3)c2cc1OC | inconclusive: 22.4 µM [inhibitor, single point]
O=c1c2c(ncn2C2CCCC2)n(Cc2ccccc2)c(=O)n1CCOc1ccccc1 | inconclusive: 35.5 µM [activator, single point]
COc1ccc(C(=O)N/N=C(\Cc2ncc[nH]2)c2ccccc2)cc1 | inconclusive: 12.6 µM [inhibitor, single point]
Cc1c(C(=O)C(=O)N2CC=C(c3ccccc3)CC2)c2ccccc2n1C | inconclusive: 14.1 µM [activator, single point]
COC(=O)CCCC1=CC2=C(c3ccccc3)C(=O)C(C)(OC(=O)C3CCCC3)C(=O)C2=CN1Cc1ccco1 (stereo not drawn) | inactive
O=C(C1=C(c2ccccc2)C(=O)c2ccccc2C1=O)c1ccccc1 | active: 11.2 µM
O=C(Nc1ccc2c(c1)OCCO2)C1CC1c1ccccc1 (stereo not drawn) | inconclusive: 10 µM [activator, partial curve, poor fit]
CCc1ccccc1NC(=O)CCC(=O)N1CCSc2ccccc21 | inactive
Cc1cc(C)cc(NC(=S)N2CC(C)OC(C)C2)c1 (stereo not drawn) | active: 15.8 µM
COc1ccccc1C/C(N)=N/OC(=O)/C=C/c1ccccc1 | active: 5.62 µM
Cc1cc(N2CCN(C/C=C/c3ccccc3)CC2)n2ncnc2n1 | inconclusive: 0.398 µM [activator, full curve]
CN1CCN(C(=S)c2cn(CCOc3ccccc3)c3ccccc23)CC1 | active: 11.2 µM
CN(C)c1ccnc(Oc2ccc(Cl)cc2)c1C#N | inconclusive: 11.2 µM [activator, partial curve, poor fit]
NC(=O)c1ccc(NCC2CCCO2)c([N+](=O)[O-])c1 (stereo not drawn) | inactive
O=C(Cc1ccccc1)Nc1nnc(-c2ccccc2)o1 | active: 1.12 µM

Structure (SMILES) | Potency
COc1ccc(/C(C)=N/NC(=S)NCc2ccco2)cc1 | active: 2.82 µM
COC(=O)c1[nH]c2ccc(C)cc2c1NC(=O)Nc1ccc(OC)cc1 | inconclusive: 35.5 µM [activator, single point]
COc1ccccc1-c1nnc(NC(=O)c2ccc(S(=O)(=O)N(C)Cc3ccccc3)cc2)o1 | active: 0.316 µM
COc1ccc(C(=S)N2CCCC2)cc1 | inactive
CC(Sc1nnnn1-c1ccc(Cl)cc1)C(=O)NCC(=O)Nc1ccc(F)c(F)c1F (stereo not drawn) | inconclusive: 31.6 µM [activator, single point]
CC1(C(=O)OCC(=O)Nc2nc(-c3ccc(F)c(F)c3)cs2)CC1(Cl)Cl (stereo not drawn) | inconclusive: 14.1 µM [activator, partial curve]
COc1ccc(C(=O)NNC(=O)C2CCN(S(=O)(=O)c3ccc(C)cc3)CC2)cc1 | inconclusive: 0.251 µM [activator, full curve]
Cn1cccc1C(=O)NCCc1ccccc1 | active: 10 µM
Cc1cccc(C(=O)O/N=C/c2c(N3CCOCC3)n(C)c3ccccc23)c1 | active: 1.58 µM
COc1n[nH]c(C(=O)Nc2nc3ccccc3s2)c1[N+](=O)[O-] | inconclusive: 11.2 µM [inhibitor, single point]
CCN(C(=O)c1ccc2c(Cl)c3c(nc2c1)CCC3)c1cccc(C)c1 | inconclusive: 28.2 µM [activator, single point]
CCC1CCCCN1C(=O)c1cc(COc2ccc(-n3cncn3)cc2)on1 (stereo not drawn) | inconclusive: 11.2 µM [activator, partial curve]
COc1ccc(-n2cccc2/C=C2\C(=N)N3N=C(C(C)C)SC3=NC2=O)cc1 | inconclusive: 5.01 µM [inhibitor, partial curve, poor fit]
COc1ccc(-c2ccnc3nc(Sc4ncc(C(F)(F)F)cc4Cl)nn23)cc1 | inactive
CC(=O)Nc1nnc(-c2ccc3c(c2)CCCC3)o1 | active: 7.08 µM
CSc1nc(O)c(/C=C2\C=Nc3ccccc32)[nH]1 | inconclusive: 15.8 µM [activator, partial curve]
Nc1ccc(-c2nc3cc(N)ccc3o2)cc1 | inconclusive: 28.2 µM [inhibitor, single point]
O=C(O)c1ccc(COc2c(F)c(F)c(F)c(F)c2F)o1 | inconclusive: 6.31 µM [activator, single point]
O=c1cc[nH]c2cc(C(F)(F)F)ccc12 | inactive
c1ccc(-c2nnc(-c3ccccc3)c(-c3c[nH]c4ccccc34)n2)cc1 | inactive
CSc1nnc(NC(=O)CCc2ccccc2)s1 | inconclusive: 35.5 µM [activator, single point]
CCCn1nc(NC(C)=O)c2cc3cccc(C)c3nc21 | inactive
CCOC(=O)c1ccc(-n2c(O)c(/C=N/NC(=O)C3COc4ccccc4O3)c3ccccc3c2=O)cc1 (stereo not drawn) | active: 2.51 µM
Cc1cc(N2CCN(C)CC2)nc2ccc(NC(=S)N3CCN(c4cccc(Cl)c4)CC3)cc12 | inactive

Of the compounds above, these have a furan ring, fused or not.
Structure (SMILES) | Potency
COC(=O)CCCC1=CC2=C(c3ccccc3)C(=O)C(C)(OC(=O)C3CCCC3)C(=O)C2=CN1Cc1ccco1 (stereo not drawn) | inactive
COc1ccc(/C(C)=N/NC(=S)NCc2ccco2)cc1 | active: 2.82 µM
O=C(O)c1ccc(COc2c(F)c(F)c(F)c(F)c2F)o1 | inconclusive: 6.31 µM [activator, single point]
